{"source": "PubChem BioAssay AID1259308, NCATS, 2017", "test": "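Knock-downs that increase output of a recombinant reporter protein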 (primary screen)", "cells": "human HEK293 embryonic kidney cells stably expressing firefly luciferase (HEK-CMV-Luc2-Hygro)", "knock-down reagent": "single siRNA against human genes, 0.8 pmol siRNA per well", "timing": "72 h", "measured": "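Reporter luminescence and viable-cell signal on separate replicate plates, given as percent of non-targeting control and median/MAD z-scores, plus per-cell luciferase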", "direction": "total luciferase, z-score: higher = more reporter protein produced", "active means": "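An siRNA counts as active if its total luciferase robust z-score exceeds 3; genes with two or more such siRNAs out of three were retested with fresh siRNAs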", "calls": "active = raised luciferase; inactive = no rise", "note": "Here is a random part of about 59,000 deposited reagents. About 1,510 of them (2.6%) were called active. 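Calls use total luciferase alone and ignore viability, so some active siRNAs may act by altering cell number.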 Reagents against one gene are numbered here. Further read-outs or replicates are left out here."}
The first 2 records as a preview:
{"gene": "DNAH9 (dynein axonemal heavy chain 9)", "reagent": 1, "total luciferase, z-score": -0.249, "outcome": "inactive"}
{"gene": "DNAH9 (dynein axonemal heavy chain 9)", "reagent": 2, "total luciferase, z-score": -0.0735, "outcome": "inactive"}

Results, repeating the preview:
{"gene": "DNAH9 (dynein axonemal heavy chain 9)", "reagent": 1, "total luciferase, z-score": -0.249, "outcome": "inactive"}
{"gene": "DNAH9 (dynein axonemal heavy chain 9)", "reagent": 2, "total luciferase, z-score": -0.0735, "outcome": "inactive"}
{"gene": "DNAH9 (dynein axonemal heavy chain 9)", "reagent": 3, "total luciferase, z-score": 0.406, "outcome": "inactive"}
{"gene": "MYOZ2 (myozenin 2)", "reagent": 1, "total luciferase, z-score": 0.694, "outcome": "inactive"}
{"gene": "MYOZ2 (myozenin 2)", "reagent": 2, "total luciferase, z-score": 0.457, "outcome": "inactive"}
{"gene": "MYOZ2 (myozenin 2)", "reagent": 3, "total luciferase, z-score": -0.531, "outcome": "inactive"}
{"gene": "FOLH1B (folate hydrolase 1B (pseudogene))", "reagent": 1, "total luciferase, z-score": -0.612, "outcome": "inactive"}
{"gene": "FOLH1B (folate hydrolase 1B (pseudogene))", "reagent": 2, "total luciferase, z-score": -1.07, "outcome": "inactive"}
{"gene": "FOLH1B (folate hydrolase 1B (pseudogene))", "reagent": 3, "total luciferase, z-score": -0.709, "outcome": "inactive"}
{"gene": "SERAC1 (serine active site containing 1)", "reagent": 1, "total luciferase, z-score": -0.554, "outcome": "inactive"}
{"gene": "SERAC1 (serine active site containing 1)", "reagent": 2, "total luciferase, z-score": -0.286, "outcome": "inactive"}
{"gene": "SERAC1 (serine active site containing 1)", "reagent": 3, "total luciferase, z-score": 0.679, "outcome": "inactive"}
